In patent US20150073154A1, “Discrete PEG Based Dyes” (EquIP, LLC, priority 2013, published 2015):
Some results were stated once for a whole list of compounds, not compound by compound.

Assay: Dye loading on protein (IgG antibody or streptavidin) without self-quenching
Details: larger protein, e.g. IgG antibody or streptavidin

Substance: carboxy fluorescein
- dye molecules per protein molecule without self-quenching: 3 to 4 molecules per protein molecule
